Source: PubChem BioAssay AID1347426 (Functional Genomics Laboratory (NCATS/FGL), 2020)
About 1,400 (4.5%) of roughly 31,000 sequences were called active.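 The calls were made as follows: active = median seed-adjusted z-score above 1 or below -1; inactive = the rest.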 The list shows a part of the results.

Test: Novel Modifiers of Survival Motor Neuron (SMN) Protein: Gene Identification via Genome-wide siRNA Screen;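 also: luminescence tracks full-length SMN protein made from the SMN2 reporter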
Conditions: HEK293T SMN2-luciferase reporter, siRNA knockdown, 72 h; actives lie on both sides
Summary of the method: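 Luciferase signal, proportional to full-length SMN made from an SMN2 cDNA reporter in stable HEK293T cells, was read 72 h after siRNA reverse transfection. Values were expressed as MAD scores after non-targeting-control normalization and log10 conversion; seed analysis flagged off-targets.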

| Sequence | median seed-adjusted z-score |
| --- | --- |
| CAACGAACCUCACUUUGUATT against SEMA4C | inactive: -0.334 |
| GGGAGAGCAUGAUCAUCCATT against GCM1 | inactive: 0.0197 |
| GGAAUUUUGUCACCAUGUUTT against MTNR1A | inactive: 0 |
| CAAUCCUCGAGGAAAAUUATT against ATOH7 | inactive: 0.135 |
| GGUCGUACAUCAGAACUUATT against ZNF565 | inactive: 0.457 |
| GAAGGACCGAUUUUACCGATT against PAK1 | inactive: -0.168 |
| CUAUGAUCCCGACUAUGAATT against RAPGEF1 | inactive: 0.304 |
| GCUGAACAUCAGUACUUCATT against MAPK7 | inactive: -0.0118 |
| CCCUAUCACGGACUGCUUATT against ZNF622 | inactive: -0.462 |
| CAUUCGAUCUAGCAAAUUATT against TUBB1 | inactive: -0.289 |
| GGAUGUCCUUCUGACAUAUTT against ITFG1 | inactive: -0.417 |
| GAUUUACCCUUCCAACAGATT against EYA1 | inactive: 0.0838 |
| UGCCCGUCAUUGUCUCCAATT against KCNA7 | inactive: 0.394 |
| GGGCUGUCAAGAAAGCAUATT against KCNAB1 | inactive: 0.721 |
| GAGAGAGAGUACAACAACATT against GABBR2 | inactive: -0.038 |
| CGGACCUAUCAAAAGAAUATT against SNRNP70 | inactive: -0.405 |
| CCAAGAAGAUCAAUGUCAATT against CASKIN1 | inactive: 0.555 |
| GAAGAGCAGCUUAGCGAAATT against AQP9 | inactive: -0.192 |
| GCCGAACAAAUGUACGGAATT against PSMB3 | inactive: -0.725 |
| GGAGUACCGGCUAACAAUATT against MORC4 | inactive: 0.13 |
| CACUUUGAGUGGAUCCAGATT against PRSS21 | inactive: -0.306 |
| GGAUCUCCUCGUCACAUAATT against PLCG2 | inactive: 0 |

| Sequence | median seed-adjusted z-score |
| --- | --- |
| GCUUACAGCUGGAGUGAAATT against SLAMF1 | inactive: -0.104 |
| CUCCAAUCCCUGUACCUCUTT against KRT31 | inactive: 0.604 |
| CCGGAGCUGUUCCACAAGATT against KCNAB2 | inactive: 0 |
| CUCCUGCUGCAAAACAAUATT against SLC25A6 | inactive: -0.928 |
| GGACUCUCGUGAAGAGAAATT against DNAI1 | inactive: -0.783 |
| GGCUGACCAUGACUGUUUUTT against PTGER3 | inactive: -0.321 |
| CGCAAAAAGGCAGACGAAATT against DUX5 | inactive: -0.295 |
| CAAUUGAAGGAGUCUAUAATT against TXNRD3 | inactive: 0.69 |
| AUAUAUUACAGUCACACCATT against KCNK15 | inactive: -0.218 |
| GUGAGACAGUUGACCGAGATT against SLC26A2 | active: -1.25 |
| GGAGGUCUGUUCUAUCUGUTT against MDFI | inactive: 0.279 |
| GGUUCACAGAUGAUACGUUTT against RAB18 | inactive: 0 |
| GAGGAGUACUUCAGCAACATT against DAPK3 | inactive: -0.105 |
| GCUGAUUUUUGCUAAUAAATT against ARL5A | inactive: 0 |
| AGAUUUUGCUAAAUGGAAATT against LSM5 | inactive: -0.661 |
| CGAGUAUUCCGGAUCUUCATT against KCNA4 | inactive: -0.634 |
| CUCUCAAAGUGUUAAAGAATT against CAMK4 | inactive: 0 |
| CAGAGAAGGUUUCAGAAGATT against DLX5 | inactive: 0.115 |
| GAGAGUGCCUUACACCAAATT against HOXD13 | inactive: 0.116 |
| CAAUUUAGAUCAGGAAGUATT against RBM7 | inactive: 0 |
| GCUUCAUUGUGGACCGGCATT against GALNTL4 | inactive: 0 |
| GCAACCAGAUUUUCAUAAATT against ALDH2 | inactive: -0.216 |

| Sequence | median seed-adjusted z-score |
| --- | --- |
| GAAGAUUGAGUAUGCCUUUTT against CIB4 | inactive: -0.638 |
| GCAGGACCUCAUAAGGAAATT against COX5A | inactive: -0.348 |
| GAAGGCCCAUUGGUAUAUATT against STXBP4 | inactive: -0.565 |
| CAAGUAUGGUGACAUCGUATT against POLR3A | inactive: 0.395 |
| GGAGAGUUCUGGACAGCCUTT against MALL | inactive: -0.477 |
| GGAGAAUUGAUGUUUCUCATT against CBX3 | inactive: -0.893 |
| GGAACUUUUUGCUAUAGAUTT against PDS5A | inactive: -0.29 |
| GGAACUUUGGGUCCUGAAUTT against ZNF251 | inactive: -0.851 |
| CAAUUGCUCUUAUCCUGUUTT against ZBTB26 | inactive: 0 |
| CAUGCACUGGAGUUAAUUATT against CHRFAM7A | inactive: 0.115 |
| GCUGUGAAUUCAAUUGCAATT against SRI | inactive: 0.994 |
| CCAAUAUUCGACUUGCGUATT against XPO1 | active: 1.12 |
| GCUGUUGGAUAAUUAUGAATT against RFX2 | inactive: 0.271 |
| CGAUGGGUUCUUUCUAAAATT against SIGLEC10 | inactive: 0.0542 |
| GACACUAUGAUUAAACUAUTT against EPM2A | inactive: 0.319 |
| CCUACACGGUCCUUCGUAATT against HEPHL1 | inactive: 0.0681 |
| GGAUUCCAGUAUCAUCCGATT against RHOBTB3 | inactive: 0.256 |
| GGCCUUUGCUCAUACUGCATT against ZNF514 | inactive: 0.125 |
| CAGAAGACCUGGUGCCCUATT against SPI1 | inactive: 0.384 |
| GGAACAAAAGGAUCGAAUATT against CLSTN3 | inactive: 0 |
| CGACUGCUGCGAAUCGUUUTT against LGR4 | inactive: 0.14 |
| CGAAUGCCCUAAUGUCAAATT against DNAJB11 | inactive: -0.0495 |

4 entries picked at random from the list so far:

| Sequence | median seed-adjusted z-score |
| --- | --- |
| GGAAUUUUGUCACCAUGUUTT against MTNR1A | inactive: 0 |
| GGAUCUCCUCGUCACAUAATT against PLCG2 | inactive: 0 |
| CACUUUGAGUGGAUCCAGATT against PRSS21 | inactive: -0.306 |
| GGCUGACCAUGACUGUUUUTT against PTGER3 | inactive: -0.321 |

Following part.

| Sequence | median seed-adjusted z-score |
| --- | --- |
| UGAUGGGAUUUGAUCUGAATT against AGBL4 | inactive: 0.487 |
| AGCAGAGACUCACAACUUUTT against PFAS | inactive: 0.0344 |
| CGGACCCGCUGAGACAUUATT against HOXB6 | inactive: -0.168 |
| CUGUUUGAGAGAAACCCAATT against ALK | inactive: 0.0139 |
| GCAUAAGAGGGAAUUCACATT against TAGLN | inactive: 0.0485 |
| GGGCAUGUUUCGUACCGUUTT against MYH10 | inactive: 0.0877 |
| GCCCAUAUUUCAUCGUGUATT against NPY | inactive: -0.0606 |
| CCGGACUUCAGAUACGUUATT against DSCAM | inactive: -0.527 |
| GCUACACCAAGGUCCCUGATT against SPRR3 | inactive: 0.682 |
| GGAAGCUCCUUGUCAAGAUTT against MECP2 | inactive: -0.332 |
| CCAGCUCUUUGCACAUGAATT against PPP1R3F | inactive: 0.781 |
| GACAGGUACUUCUAAGUCATT against AHSA1 | inactive: 0.489 |
| CAAGAACUCGGAUAAUGAUTT against IL2RG | inactive: -0.155 |
| CAGUGACUGUUGUUGGUCUTT against PKD1L3 | inactive: -0.658 |
| GGACGAGAGAUGUACAUUATT against CNGA1 | active: -1.08 |
| GGGUAAUGGUGGGUCUUAATT against EFHD1 | inactive: -0.326 |
| GAACAUUAGUCAGAUGAUUTT against LIPF | inactive: 0.54 |
| CGAAGCAGCUGAUCAGAAUTT against AKAP7 | inactive: 0.37 |
| GGAUGUUUUCCGGUUCAUATT against LOC4951 | inactive: 0.0691 |
| CCGUGGACGAGUUCAAGAATT against HPCAL1 | inactive: -0.00535 |
| GCCUUAAAAUCAUAGUUGUTT against ACSL1 | inactive: 0.264 |
| CGAUGAAACCUAUGAUUAUTT against HNRPK | inactive: 0.296 |

| Sequence | median seed-adjusted z-score |
| --- | --- |
| CAGACACUGUCUACAAGAATT against DPYSL5 | inactive: 0.0624 |
| GGAAACUUCUCACCUAUGATT against MAGED1 | inactive: 0.524 |
| AGGUCAACACGGAGCUCAATT against CHRM1 | active: 1.1 |
| CAUCGAUCCCAAUAACCCATT against HOXA9 | inactive: -0.304 |
| GAAUGUGGGCUAUCUAGAATT against B4GALT4 | inactive: -0.0479 |
| GUCAUUUACUUGUACGAGATT against CLDN11 | inactive: 0.268 |
| GGAACAAUGUAUCUAACAATT against BOLL | inactive: -0.072 |
| GGACUACACCAGGACUGUATT against INPP5E | inactive: -0.0321 |
| GCUUCAUCGACAAAGAGGATT against MYLC2PL | inactive: -0.7 |
| CAGAUAUUGUUGACAAAGATT against NME5 | inactive: 0.393 |
| GCAGCUCUACAACUCAGUUTT against IL12RB1 | inactive: -0.126 |
| GGAAGAAACAAUUAAAGUATT against NDUFA6 | inactive: -0.457 |
| ACAUCGACUUUCUUGCUGATT against IMPDH1 | inactive: 0.558 |
| AGGCCGCUGUGGACAUCAATT against CASKIN1 | inactive: 0.555 |
| GCAGUUAUGUUGGAAGAUUTT against STX6 | inactive: 0.748 |
| GAAUUGUUCGUGACUAUGATT against PCYT1B | inactive: 0.177 |
| GAAUCUUUCCCAUAUCGAATT against CREBBP | inactive: 0 |
| CCAUCUGUUUGAACUUAGATT against TLR5 | inactive: 0 |
| GGAGCAAAACAGAUCUUGATT against PINX1 | inactive: 0.11 |
| CGGCAUGCACGAUAAGUUUTT against ABHD8 | inactive: -0.48 |
